Source: paper PMC6367972
Results are given in words; binding and its absence hold for the method and conditions named. In cells and extracts the contact can be indirect. Some entries that bind do so weakly or less than the wild type. Blank lines part the entries; values can stand above or below the molecule they belong to.

Sequences of proteins named here, by UniProt entry; tags and fusion partners are left off.
UniProt O14964: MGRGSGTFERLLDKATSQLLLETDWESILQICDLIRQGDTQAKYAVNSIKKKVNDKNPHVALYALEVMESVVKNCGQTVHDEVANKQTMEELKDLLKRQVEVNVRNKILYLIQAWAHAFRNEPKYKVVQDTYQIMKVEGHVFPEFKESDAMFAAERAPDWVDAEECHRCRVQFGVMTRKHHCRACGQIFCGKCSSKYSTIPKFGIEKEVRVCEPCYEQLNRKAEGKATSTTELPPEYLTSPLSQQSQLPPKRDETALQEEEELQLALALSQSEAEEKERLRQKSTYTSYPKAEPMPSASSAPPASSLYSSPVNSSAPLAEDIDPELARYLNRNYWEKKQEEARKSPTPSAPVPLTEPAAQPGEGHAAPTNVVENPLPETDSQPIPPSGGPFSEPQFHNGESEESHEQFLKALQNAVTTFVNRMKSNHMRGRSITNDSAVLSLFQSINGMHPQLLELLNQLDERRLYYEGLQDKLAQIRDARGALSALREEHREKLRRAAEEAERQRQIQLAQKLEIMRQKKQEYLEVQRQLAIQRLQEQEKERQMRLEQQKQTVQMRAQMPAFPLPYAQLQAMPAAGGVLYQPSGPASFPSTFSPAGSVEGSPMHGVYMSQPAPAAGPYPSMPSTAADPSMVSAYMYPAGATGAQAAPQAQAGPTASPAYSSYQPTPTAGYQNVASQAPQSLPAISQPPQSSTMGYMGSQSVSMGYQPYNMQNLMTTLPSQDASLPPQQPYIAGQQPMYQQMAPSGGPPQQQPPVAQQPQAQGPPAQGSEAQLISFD
UniProt Q99LI8: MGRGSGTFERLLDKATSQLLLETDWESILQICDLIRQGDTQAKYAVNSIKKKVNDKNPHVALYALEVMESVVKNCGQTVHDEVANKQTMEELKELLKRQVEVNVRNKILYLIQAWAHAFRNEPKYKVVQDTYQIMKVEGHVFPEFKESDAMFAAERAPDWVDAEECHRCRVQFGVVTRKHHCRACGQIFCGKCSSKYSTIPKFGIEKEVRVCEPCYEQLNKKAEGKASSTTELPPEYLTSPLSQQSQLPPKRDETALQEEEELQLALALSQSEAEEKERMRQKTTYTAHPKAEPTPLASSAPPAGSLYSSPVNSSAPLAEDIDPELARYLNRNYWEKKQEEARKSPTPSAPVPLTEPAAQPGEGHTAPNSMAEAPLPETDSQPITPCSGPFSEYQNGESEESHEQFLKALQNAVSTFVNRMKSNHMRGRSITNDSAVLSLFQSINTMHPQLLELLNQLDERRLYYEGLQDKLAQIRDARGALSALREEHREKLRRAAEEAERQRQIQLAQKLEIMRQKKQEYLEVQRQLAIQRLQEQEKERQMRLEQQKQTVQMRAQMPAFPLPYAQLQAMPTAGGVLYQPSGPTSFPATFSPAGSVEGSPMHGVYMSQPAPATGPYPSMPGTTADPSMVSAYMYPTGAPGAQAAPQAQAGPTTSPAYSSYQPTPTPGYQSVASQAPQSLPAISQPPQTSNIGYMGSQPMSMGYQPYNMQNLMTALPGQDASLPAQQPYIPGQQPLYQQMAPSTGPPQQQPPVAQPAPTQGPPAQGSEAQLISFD
UniProt O43707: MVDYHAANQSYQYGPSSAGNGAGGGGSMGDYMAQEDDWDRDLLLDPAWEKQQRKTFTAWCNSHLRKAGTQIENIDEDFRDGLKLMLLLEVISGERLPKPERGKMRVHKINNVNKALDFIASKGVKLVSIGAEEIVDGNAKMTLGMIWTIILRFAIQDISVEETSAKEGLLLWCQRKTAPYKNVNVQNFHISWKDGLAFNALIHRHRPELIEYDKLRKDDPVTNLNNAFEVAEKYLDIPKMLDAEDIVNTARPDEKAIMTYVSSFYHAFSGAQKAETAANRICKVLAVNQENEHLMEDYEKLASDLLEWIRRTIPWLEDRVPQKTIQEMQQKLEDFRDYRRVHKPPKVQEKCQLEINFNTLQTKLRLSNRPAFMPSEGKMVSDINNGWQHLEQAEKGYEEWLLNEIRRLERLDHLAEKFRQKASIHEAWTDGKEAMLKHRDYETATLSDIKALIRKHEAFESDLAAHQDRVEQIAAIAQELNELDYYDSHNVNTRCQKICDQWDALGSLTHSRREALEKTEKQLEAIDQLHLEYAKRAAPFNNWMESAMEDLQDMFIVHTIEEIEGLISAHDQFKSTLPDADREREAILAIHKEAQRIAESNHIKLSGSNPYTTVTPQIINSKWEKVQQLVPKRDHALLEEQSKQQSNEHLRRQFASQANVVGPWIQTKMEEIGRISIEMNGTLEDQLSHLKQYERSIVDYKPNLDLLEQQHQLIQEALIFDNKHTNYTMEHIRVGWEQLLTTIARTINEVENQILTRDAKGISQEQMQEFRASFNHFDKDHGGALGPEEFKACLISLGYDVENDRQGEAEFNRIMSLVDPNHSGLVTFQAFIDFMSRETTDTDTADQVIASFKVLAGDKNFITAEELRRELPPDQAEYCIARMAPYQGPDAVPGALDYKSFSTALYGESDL

Experiments:
[1] = molecular target: T1, CLEC16A (mouse, splenocytes of control mice) (mouse (endogenous in splenocytes)) (UniProt Q80U30); test: co-IP; lysates of 250 x 10^6 splenocytes from control (oil) and Clec16a KO (TAM) mice, CLEC16A IP; immunoblot for CLEC16A and Hrs
T1 sequence: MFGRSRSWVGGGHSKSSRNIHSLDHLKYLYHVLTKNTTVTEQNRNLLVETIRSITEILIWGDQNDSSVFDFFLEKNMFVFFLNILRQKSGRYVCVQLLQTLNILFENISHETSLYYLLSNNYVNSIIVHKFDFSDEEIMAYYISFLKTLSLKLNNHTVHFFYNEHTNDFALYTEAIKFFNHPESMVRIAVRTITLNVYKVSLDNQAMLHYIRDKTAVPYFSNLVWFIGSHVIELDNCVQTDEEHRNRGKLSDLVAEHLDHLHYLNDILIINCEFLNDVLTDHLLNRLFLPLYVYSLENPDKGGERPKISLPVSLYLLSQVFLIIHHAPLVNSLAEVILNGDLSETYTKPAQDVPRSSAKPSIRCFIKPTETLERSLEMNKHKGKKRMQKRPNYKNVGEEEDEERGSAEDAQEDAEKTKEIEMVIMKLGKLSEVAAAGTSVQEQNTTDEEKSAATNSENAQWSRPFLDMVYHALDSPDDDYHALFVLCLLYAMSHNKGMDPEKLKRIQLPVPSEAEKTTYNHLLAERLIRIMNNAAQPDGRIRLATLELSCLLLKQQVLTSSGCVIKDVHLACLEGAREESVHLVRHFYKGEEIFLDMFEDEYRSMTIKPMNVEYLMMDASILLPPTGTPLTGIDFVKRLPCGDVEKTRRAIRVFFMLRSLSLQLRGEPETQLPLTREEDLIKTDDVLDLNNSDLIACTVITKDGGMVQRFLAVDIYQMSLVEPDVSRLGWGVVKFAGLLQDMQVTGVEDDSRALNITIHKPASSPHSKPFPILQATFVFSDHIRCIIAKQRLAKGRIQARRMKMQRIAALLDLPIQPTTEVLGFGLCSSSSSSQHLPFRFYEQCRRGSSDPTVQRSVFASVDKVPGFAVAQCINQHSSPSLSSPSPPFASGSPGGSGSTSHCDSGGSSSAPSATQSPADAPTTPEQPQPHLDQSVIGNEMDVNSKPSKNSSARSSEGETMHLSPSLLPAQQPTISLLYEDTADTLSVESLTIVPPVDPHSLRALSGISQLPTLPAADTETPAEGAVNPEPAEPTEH

[2] = molecular target: T2, CLEC16A (endogenous, parental YTS NK cells) (human (endogenous in YTS)) (UniProt Q2KHT3); test: co-IP; lysates of YTS and YTS-CLEC16A cells (IP-lysis buffer), pre-cleared, precipitated with CLEC16A antibody (IgG as control) and agarose G beads at 4°C; immunoblot of the partners
T2 sequence: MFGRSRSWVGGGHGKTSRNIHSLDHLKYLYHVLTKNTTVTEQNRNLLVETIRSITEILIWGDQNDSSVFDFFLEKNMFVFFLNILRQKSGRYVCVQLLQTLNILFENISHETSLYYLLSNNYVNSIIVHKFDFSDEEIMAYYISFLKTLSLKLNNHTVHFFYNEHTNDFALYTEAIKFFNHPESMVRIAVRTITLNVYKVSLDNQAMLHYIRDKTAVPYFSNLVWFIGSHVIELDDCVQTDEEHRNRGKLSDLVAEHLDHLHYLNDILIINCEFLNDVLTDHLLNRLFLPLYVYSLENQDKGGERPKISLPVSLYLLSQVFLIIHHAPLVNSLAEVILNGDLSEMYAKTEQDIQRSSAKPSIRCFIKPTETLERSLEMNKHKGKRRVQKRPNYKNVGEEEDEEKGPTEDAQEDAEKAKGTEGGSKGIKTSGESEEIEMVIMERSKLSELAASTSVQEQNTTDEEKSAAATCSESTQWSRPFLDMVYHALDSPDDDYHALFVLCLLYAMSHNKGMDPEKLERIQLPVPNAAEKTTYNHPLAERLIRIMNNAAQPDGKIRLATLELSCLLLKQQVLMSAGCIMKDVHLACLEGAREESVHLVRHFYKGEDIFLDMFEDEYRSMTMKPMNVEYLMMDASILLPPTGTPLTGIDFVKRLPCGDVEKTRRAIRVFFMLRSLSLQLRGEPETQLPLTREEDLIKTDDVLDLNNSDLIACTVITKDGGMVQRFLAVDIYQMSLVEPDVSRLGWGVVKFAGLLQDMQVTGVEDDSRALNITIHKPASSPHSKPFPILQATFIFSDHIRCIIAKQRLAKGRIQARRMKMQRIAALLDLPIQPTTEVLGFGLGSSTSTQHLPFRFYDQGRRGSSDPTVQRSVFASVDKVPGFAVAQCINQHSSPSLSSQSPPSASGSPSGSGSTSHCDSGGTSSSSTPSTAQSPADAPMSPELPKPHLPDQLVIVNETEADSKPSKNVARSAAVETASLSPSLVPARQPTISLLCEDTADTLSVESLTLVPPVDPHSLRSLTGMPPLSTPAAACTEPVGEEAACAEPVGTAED

[3] = molecular target: T3, CLEC16A (stably overexpressed in YTS-CLEC16A NK cells) (human) (UniProt Q2KHT3); test: as above
T3 sequence: T2 sequence

[4] = molecular target: ESCRT protein-Hrs (human (endogenous in YTS)) (UniProt O14964); test: co-IP; reverse co-IP: lysates of YTS and YTS-CLEC16A cells precipitated with Vps-16A, Hrs or CD226 antibody and agarose G beads at 4°C; immunoblot for CLEC16A
[5] = molecular target: T4, Vps16A, a subunit of the class C Vps-HOPS complex (human (endogenous in YTS)) (UniProt Q9H269); test: as above
T4 sequence: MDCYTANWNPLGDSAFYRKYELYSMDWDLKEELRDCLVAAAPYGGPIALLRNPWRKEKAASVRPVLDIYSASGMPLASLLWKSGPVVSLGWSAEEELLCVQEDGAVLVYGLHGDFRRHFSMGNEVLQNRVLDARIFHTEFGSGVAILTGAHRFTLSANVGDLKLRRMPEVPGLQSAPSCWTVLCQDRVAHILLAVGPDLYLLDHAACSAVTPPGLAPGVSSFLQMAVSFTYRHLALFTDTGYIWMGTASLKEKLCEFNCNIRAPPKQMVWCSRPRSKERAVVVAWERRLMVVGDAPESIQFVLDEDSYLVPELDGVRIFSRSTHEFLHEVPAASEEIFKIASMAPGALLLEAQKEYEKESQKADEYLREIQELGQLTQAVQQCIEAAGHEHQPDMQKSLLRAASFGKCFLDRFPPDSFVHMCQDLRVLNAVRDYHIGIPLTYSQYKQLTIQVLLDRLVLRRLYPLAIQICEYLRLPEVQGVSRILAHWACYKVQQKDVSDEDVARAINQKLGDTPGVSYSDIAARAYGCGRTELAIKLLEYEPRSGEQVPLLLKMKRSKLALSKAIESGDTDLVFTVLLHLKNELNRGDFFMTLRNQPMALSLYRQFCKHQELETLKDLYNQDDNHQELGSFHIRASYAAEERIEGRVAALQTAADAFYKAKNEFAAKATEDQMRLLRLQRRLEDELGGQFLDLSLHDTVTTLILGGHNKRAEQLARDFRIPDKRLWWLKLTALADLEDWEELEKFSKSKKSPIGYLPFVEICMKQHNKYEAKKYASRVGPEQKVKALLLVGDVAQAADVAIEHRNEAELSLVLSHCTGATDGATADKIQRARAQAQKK

binding [1]: binds
Molecule: Hrs (mouse, splenocytes) (from UniProt Q99LI8 1-775)

binding [2]: binds
Molecule: Actinin-4 (from UniProt O43707 1-911)

binding [2]: binds | binding [3]: binds
Molecule: ESCRT protein-Hrs (from UniProt O14964 1-777)

binding [2]: binds | binding [3]: binds
B1: Vps16A, a subunit of the class C Vps-HOPS complex (protein, UniProt Q9H269 1-839)
chain: T4 sequence

binding [4]: binds | binding [5]: binds
B2: CLEC16A (endogenous, parental YTS NK cells) (protein, UniProt Q2KHT3 1-1053)
chain: T2 sequence

binding [4]: binds | binding [5]: binds
B3: CLEC16A (stably overexpressed in YTS-CLEC16A NK cells) (protein, UniProt Q2KHT3 1-1053)
chain: T2 sequence
